Measured values reported in the supplement of paper PMC10849652.
Some of the results follow.

Sequences of proteins named here, by UniProt entry; tags and fusion partners are left off. A change or cut given only in a name is not applied to a line headed by its entry.
UniProt Q6ULP2: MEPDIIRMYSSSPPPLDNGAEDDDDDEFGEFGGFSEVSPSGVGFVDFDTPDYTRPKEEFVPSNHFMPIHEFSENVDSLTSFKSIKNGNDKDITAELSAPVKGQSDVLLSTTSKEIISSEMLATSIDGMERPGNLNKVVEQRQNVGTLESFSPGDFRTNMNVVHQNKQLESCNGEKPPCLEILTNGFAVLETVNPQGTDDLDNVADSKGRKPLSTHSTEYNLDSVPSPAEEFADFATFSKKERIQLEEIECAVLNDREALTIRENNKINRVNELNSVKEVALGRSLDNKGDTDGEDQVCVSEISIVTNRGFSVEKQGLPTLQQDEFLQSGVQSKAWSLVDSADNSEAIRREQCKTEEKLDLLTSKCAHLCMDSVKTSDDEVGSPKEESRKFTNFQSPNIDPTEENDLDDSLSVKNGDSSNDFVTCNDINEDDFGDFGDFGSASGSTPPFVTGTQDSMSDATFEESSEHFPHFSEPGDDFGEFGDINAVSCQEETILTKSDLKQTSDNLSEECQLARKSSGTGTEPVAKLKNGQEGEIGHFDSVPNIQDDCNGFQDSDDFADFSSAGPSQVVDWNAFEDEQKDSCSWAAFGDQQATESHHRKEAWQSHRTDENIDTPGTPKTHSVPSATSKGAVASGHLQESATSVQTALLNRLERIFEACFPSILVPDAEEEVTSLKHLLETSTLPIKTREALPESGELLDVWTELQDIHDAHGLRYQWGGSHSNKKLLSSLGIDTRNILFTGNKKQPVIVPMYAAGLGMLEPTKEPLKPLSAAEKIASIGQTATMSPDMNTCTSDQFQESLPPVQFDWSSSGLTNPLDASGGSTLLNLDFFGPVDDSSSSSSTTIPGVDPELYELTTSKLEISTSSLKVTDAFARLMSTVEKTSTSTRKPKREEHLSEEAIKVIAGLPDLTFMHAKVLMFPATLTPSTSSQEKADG
UniProt P23526: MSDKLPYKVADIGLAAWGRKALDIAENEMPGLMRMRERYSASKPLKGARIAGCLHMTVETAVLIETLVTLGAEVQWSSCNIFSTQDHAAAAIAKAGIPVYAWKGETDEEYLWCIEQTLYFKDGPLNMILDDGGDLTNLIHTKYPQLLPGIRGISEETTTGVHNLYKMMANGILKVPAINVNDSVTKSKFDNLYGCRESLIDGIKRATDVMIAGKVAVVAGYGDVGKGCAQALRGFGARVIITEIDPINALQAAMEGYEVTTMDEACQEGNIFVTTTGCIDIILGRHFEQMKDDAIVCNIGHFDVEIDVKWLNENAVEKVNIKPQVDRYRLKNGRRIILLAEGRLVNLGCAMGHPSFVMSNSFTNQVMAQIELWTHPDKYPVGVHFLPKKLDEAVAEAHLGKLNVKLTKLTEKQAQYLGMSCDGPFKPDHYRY
UniProt O94788: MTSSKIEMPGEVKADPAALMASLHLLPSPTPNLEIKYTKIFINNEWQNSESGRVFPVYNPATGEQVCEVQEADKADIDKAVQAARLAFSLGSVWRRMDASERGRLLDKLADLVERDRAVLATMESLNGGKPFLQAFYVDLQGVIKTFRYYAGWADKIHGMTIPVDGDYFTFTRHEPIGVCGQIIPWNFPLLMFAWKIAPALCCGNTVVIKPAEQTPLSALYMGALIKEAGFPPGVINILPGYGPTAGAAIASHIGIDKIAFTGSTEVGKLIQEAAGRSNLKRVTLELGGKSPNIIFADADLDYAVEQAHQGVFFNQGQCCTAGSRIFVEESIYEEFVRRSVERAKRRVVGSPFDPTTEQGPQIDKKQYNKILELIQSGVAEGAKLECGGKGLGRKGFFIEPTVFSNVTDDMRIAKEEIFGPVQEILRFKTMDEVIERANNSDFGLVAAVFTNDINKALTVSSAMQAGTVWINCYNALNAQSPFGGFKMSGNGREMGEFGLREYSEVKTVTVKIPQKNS
UniProt P00568: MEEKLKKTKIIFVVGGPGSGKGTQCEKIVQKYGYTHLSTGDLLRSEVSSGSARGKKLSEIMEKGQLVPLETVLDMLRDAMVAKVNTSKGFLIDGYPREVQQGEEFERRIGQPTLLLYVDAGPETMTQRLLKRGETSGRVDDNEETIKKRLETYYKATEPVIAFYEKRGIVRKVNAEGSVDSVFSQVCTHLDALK
UniProt P27144: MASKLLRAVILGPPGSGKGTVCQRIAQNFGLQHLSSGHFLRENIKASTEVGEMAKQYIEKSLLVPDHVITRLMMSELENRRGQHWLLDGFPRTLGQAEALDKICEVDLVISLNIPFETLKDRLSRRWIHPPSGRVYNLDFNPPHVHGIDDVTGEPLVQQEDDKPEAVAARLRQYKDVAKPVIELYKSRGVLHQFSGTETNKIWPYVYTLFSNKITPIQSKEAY
UniProt Q9UIJ7: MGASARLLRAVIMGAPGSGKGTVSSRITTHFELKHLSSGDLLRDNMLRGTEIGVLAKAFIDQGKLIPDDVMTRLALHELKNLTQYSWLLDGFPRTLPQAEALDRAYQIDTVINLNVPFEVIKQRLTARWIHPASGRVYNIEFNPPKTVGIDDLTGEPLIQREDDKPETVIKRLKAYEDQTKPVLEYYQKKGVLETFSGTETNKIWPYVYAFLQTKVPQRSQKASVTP
UniProt Q5I7T1: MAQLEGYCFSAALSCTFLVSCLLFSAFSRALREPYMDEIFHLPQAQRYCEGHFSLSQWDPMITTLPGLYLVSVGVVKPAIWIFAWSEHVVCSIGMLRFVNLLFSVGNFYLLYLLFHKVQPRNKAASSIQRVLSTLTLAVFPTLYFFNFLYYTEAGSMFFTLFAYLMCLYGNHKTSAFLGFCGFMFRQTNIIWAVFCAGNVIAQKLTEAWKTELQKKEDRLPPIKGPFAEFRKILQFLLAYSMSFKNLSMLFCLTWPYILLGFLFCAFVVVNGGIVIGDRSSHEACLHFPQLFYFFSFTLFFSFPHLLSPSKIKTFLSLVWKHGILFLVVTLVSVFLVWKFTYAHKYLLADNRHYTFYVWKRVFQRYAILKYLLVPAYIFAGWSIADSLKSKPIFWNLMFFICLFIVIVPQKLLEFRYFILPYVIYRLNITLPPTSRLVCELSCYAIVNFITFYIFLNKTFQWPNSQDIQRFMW
UniProt Q96BJ3: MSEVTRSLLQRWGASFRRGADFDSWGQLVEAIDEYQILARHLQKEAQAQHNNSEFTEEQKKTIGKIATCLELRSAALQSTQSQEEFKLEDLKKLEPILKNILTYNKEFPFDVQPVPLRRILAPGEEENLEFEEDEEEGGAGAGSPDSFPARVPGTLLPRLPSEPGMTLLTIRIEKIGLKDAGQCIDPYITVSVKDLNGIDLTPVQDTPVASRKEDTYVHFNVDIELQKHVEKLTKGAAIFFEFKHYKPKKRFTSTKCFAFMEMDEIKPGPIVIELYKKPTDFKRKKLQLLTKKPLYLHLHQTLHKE
UniProt O15120: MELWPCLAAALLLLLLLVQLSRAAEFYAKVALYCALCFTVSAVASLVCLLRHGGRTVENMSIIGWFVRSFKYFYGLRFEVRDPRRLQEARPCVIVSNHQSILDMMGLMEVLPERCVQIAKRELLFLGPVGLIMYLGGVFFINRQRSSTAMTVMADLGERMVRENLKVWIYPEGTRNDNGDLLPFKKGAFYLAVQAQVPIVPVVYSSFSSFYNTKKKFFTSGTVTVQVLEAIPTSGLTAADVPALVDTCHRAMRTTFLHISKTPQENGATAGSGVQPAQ
UniProt Q12904: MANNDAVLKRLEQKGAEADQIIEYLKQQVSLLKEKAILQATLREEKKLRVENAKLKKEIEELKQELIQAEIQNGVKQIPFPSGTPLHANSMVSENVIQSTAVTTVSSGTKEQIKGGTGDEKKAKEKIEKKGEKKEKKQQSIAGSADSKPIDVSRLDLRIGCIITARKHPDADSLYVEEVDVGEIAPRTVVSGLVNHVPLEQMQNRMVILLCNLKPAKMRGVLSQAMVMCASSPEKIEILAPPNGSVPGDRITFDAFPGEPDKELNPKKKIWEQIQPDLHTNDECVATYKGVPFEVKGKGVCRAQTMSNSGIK
UniProt P30038: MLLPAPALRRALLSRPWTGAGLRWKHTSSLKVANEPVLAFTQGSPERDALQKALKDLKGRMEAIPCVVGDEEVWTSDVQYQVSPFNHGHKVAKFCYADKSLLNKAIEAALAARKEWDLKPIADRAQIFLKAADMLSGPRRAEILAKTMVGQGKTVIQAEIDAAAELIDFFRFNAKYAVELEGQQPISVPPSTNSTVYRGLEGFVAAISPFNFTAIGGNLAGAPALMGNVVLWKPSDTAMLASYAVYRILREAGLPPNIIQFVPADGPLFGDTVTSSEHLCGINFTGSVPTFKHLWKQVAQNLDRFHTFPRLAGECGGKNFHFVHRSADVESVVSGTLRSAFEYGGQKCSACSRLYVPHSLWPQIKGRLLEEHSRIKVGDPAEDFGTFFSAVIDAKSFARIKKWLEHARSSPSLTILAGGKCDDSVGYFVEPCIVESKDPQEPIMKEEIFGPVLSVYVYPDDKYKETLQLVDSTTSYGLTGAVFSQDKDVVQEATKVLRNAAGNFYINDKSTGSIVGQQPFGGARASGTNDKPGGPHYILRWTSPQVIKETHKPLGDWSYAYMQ
UniProt Q9BVK2: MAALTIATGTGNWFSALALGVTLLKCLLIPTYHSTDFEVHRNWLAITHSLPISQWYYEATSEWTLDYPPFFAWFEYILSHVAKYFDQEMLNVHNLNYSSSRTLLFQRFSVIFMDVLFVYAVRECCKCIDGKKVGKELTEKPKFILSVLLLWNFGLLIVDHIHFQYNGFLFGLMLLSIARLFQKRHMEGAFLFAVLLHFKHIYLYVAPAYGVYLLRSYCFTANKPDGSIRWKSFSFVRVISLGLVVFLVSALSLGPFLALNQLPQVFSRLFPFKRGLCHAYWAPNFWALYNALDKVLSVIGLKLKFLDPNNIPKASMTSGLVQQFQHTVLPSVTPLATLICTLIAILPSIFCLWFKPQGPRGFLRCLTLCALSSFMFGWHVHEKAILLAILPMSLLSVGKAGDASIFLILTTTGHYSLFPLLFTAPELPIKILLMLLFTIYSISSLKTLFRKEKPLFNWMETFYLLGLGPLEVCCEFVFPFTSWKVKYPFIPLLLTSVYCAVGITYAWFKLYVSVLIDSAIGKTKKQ
UniProt P02771: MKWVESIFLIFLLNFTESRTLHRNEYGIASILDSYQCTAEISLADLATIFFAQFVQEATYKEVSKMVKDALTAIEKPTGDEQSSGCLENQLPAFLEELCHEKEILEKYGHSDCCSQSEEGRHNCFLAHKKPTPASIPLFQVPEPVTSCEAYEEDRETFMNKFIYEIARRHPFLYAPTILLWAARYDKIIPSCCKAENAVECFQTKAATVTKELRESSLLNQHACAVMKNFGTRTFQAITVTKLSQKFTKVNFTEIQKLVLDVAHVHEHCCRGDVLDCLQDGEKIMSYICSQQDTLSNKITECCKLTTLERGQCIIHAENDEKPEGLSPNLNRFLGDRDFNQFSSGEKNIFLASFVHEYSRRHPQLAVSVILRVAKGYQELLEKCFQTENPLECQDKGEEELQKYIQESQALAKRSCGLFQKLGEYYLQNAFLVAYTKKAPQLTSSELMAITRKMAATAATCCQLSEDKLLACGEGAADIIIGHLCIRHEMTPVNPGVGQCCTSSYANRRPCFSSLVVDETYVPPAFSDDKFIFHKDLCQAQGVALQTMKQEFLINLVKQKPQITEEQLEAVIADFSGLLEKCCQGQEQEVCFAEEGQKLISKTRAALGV

Key:
Test in all cases: log2 fold change, soluble protein after heating vs DMSO (PISA); higher = thermal stabilisation; K562 cells, 10 uM, 30 min; active = over 0.2 and 3.5 SD of the protein, either way, in both replicates (recomputed)
[1] = compound: CC[C@@H]1C(=O)N(C)c2cnc(Nc3ccc(C(=O)NC4CCN(C)CC4)cc3OC)nc2N1C1CCCC1
Method in brief: (§1)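 Soluble protein was quantified by TMTpro 16plex LC-MS/MS after channel sums were equalised. It was obtained as the supernatant after 21,000xg for 90 min from pooled aliquots of K562 cells (2×10^6 cells/mL, 10 μM compound, 30 min) heated for 3 min across 48°C-58°C and extracted in PBS with 0.5% NP-40 at 4°C. Thermal stability values are relative to control samples and come from duplicates. They are given as log2 fold changes.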

volasertib = compound: CC[C@@H]1C(=O)N(C)c2cnc(Nc3ccc(C(=O)N[C@H]4CC[C@H](N5CCN(CC6CC6)CC5)CC4)cc3OC)nc2N1C(C)C [volasertib]
Method in brief: as §1

[2] = compound: CC[C@H](C)N1C=C(C2=C(C=C(C=C21)C3=CN=C(C=C3)N4CCNCC4)C(=O)NCC5=C(C=C(NC5=O)C)C)C
Method in brief: as §1

epoxomicin = compound: CC[C@H](C)[C@@H](C(=O)N[C@@H]([C@@H](C)O)C(=O)N[C@@H](CC(C)C)C(=O)[C@]1(CO1)C)NC(=O)[C@H]([C@@H](C)CC)N(C)C(=O)C [epoxomicin]
Method in brief: as §1

[3] = compound: CCn1c(C(=O)N(C2CC2)C2CC2)cc2c3c(ncn3C)c(Nc3cc(C)n(C)n3)nc21
Method in brief: as §1

[4] = compound: CCn1cc(-c2ccnc3[nH]c(-c4cccc(CN(C)C)c4)cc23)c(-c2ccc(NC(=O)N(C)C)cc2)n1
Method in brief: as §1

[5] = compound: CN(C)CC(=O)Nc1ccc2[nH]c(=O)c3ccccc3c2c1
Method in brief: as §1

rosiglitazone = compound: CN(CCOC1=CC=C(C=C1)C[C@H]2C(=O)NC(=O)S2)C3=CC=CC=N3 (racemic) [rosiglitazone]
Method in brief: as §1

[6] = compound: CN1C2=C(C3=C1C(=O)N(N=C3)CC4=CC(=CC=C4)N)SC(=C2)S(=O)C
Method in brief: as §1

[7] = compound: CN1CCC(CNc2ccc3ncc(-c4cccc(OC(F)(F)F)c4)n3n2)CC1
Method in brief: as §1

saracatinib = compound: CN1CCN(CCOc2cc(OC3CCOCC3)c3c(Nc4c(Cl)ccc5c4OCO5)ncnc3c2)CC1 [saracatinib]
Method in brief: as §1

sotrastaurin = compound: CN1CCN(c2nc(C3=C(c4c[nH]c5ccccc45)C(=O)NC3=O)c3ccccc3n2)CC1 [sotrastaurin]
Method in brief: as §1

alvocidib = compound: CN1CC[C@H](c2c(O)cc(O)c3c(=O)cc(-c4ccccc4Cl)oc23)[C@H](O)C1 [alvocidib]
Method in brief: as §1

Tubastatin A = compound: CN1CCc2c(c3ccccc3n2Cc2ccc(C(=O)NO)cc2)C1 [Tubastatin A]
Method in brief: as §1

[8] = compound: CNC(=O)C1=CC=CC=C1NC2=NC(=NC=C2Cl)NC3=C(C=C(C=C3)N4CCOCC4)OC
Method in brief: as §1

defactinib = compound: CNC(=O)c1ccc(Nc2ncc(C(F)(F)F)c(NCc3nccnc3N(C)S(C)(=O)=O)n2)cc1 [defactinib]
Method in brief: as §1

rucaparib = compound: CNCc1ccc(-c2[nH]c3cc(F)cc4c3c2CCNC4=O)cc1 [rucaparib]
Method in brief: as §1

[9] = compound: CNc1nc(-c2ccc3c(N)n[nH]c3c2)cc(N2C[C@@H](C(=O)NC3CCCCC3)CC[C@H]2C)n1
Method in brief: as §1

encorafenib = compound: COC(=O)N[C@@H](C)CNc1nccc(-c2cn(C(C)C)nc2-c2cc(Cl)cc(NS(C)(=O)=O)c2F)n1 [encorafenib]
Method in brief: as §1

[10] = compound: COC(=O)[C@H](CCSC)NC(=O)C1=C(C=C(C=C1)NC[C@H](CS)N)C2=CC=CC=C2
Method in brief: as §1

Measured: log2 fold change

AFTPH isoform 9 (UniProt Q6ULP2)
inactive: [1] -0.008 | volasertib -0.15 | [2] 0.058 | epoxomicin 0.021 | [3] 0.003 | [4] 0.004 | [5] -0.007 | rosiglitazone 0.043 | [6] 0.036 | [7] -0.105 | saracatinib -0.007 | sotrastaurin 0.036 | alvocidib -0.03 | Tubastatin A 0.048 | [8] -0.017 | defactinib -0.087 | rucaparib 0 | [9] -0.048 | encorafenib -0.02 | [10] 0.033

AHCY (UniProt P23526)
inactive: [1] 0.028 | volasertib 0.054 | [2] -0.031 | epoxomicin -0.017 | [3] 0.009 | [4] -0.031 | [5] -0.051 | rosiglitazone 0.021 | [6] -0.032 | [7] -0.018 | saracatinib 0.052 | sotrastaurin 0.03 | alvocidib 0.002 | Tubastatin A -0.029 | [8] -0.039 | defactinib -0.002 | rucaparib -0.025 | [9] -0.006 | encorafenib -0.016 | [10] -0.002

ALDH1A2 (UniProt O94788)
inactive: [1] -0.016 | volasertib 0.056 | [2] -0.011 | epoxomicin 0.017 | [3] -0.017 | [4] -0.057 | [5] -0.004 | rosiglitazone 0.029 | [6] -0.069 | [7] -0.011 | saracatinib 0.017 | sotrastaurin 0.006 | alvocidib -0.033 | Tubastatin A -0.005 | [8] 0.017 | defactinib -0.014 | rucaparib -0.08 | [9] -0.001 | encorafenib -0.016 | [10] -0.004

AK1 (UniProt P00568)
inactive: [1] -0.03 | volasertib 0.052 | [2] 0.053 | epoxomicin 0.03 | [3] -0.002 | [4] -0.027 | [5] 0.04 | rosiglitazone 0.023 | [6] -0.074 | [7] -0.033 | saracatinib -0.004 | sotrastaurin 0.011 | alvocidib -0.062 | Tubastatin A 0.013 | [8] 0.064 | defactinib -0.042 | rucaparib 0.01 | [9] -0.003 | encorafenib -0.036 | [10] -0.01

AK4 (UniProt P27144)
inactive: [1] 0.008 | volasertib 0.043 | [2] 0.012 | epoxomicin 0.032 | [3] 0.003 | [4] -0.017 | [5] -0.026 | rosiglitazone 0.041 | [6] -0.01 | [7] -0.007 | saracatinib 0.018 | sotrastaurin 0.003 | alvocidib -0.035 | Tubastatin A -0.02 | [8] -0.063 | defactinib -0.023 | rucaparib -0.035 | [9] 0.014 | encorafenib 0.002 | [10] -0.036

AK3 (UniProt Q9UIJ7)
inactive: [1] 0.028 | volasertib 0.052 | [2] -0.038 | epoxomicin -0.012 | [3] 0 | [4] -0.003 | [5] 0.012 | rosiglitazone 0.008 | [6] -0.038 | [7] -0.014 | saracatinib -0.009 | sotrastaurin 0.051 | alvocidib 0.017 | Tubastatin A -0.022 | [8] -0.005 | defactinib 0.018 | rucaparib 0 | [9] -0.051 | encorafenib -0.016 | [10] 0.03

AGO3 (UniProt Q9H9G7)
inactive: [1] 0.223 | volasertib 0.11 | [2] 0.051 | epoxomicin -0.046 | [3] 0.109 | [4] 0.147 | [5] -0.096 | rosiglitazone -0.073 | [6] 0.023 | [7] -0.085 | saracatinib -0.054 | sotrastaurin -0.066 | alvocidib 0.224 | Tubastatin A -0.041 | [8] 0 | defactinib 0.06 | rucaparib 0.169 | [9] 0.038 | encorafenib 0.059 | [10] 0.063

ALG10B (UniProt Q5I7T1)
inactive: [1] 0.092 | volasertib -0.079 | [2] -0.012 | epoxomicin 0.003 | [3] 0.031 | [4] 0.09 | [5] 0.096 | rosiglitazone -0.109 | [6] 0 | [7] -0.031 | saracatinib 0.029 | sotrastaurin -0.018 | alvocidib 0.03 | Tubastatin A -0.042 | [8] 0.019 | defactinib 0.128 | rucaparib -0.023 | [9] 0.014 | encorafenib -0.014 | [10] -0.151

AIDA (UniProt Q96BJ3)
inactive: [1] -0.009 | volasertib -0.139 | [2] 0.027 | epoxomicin 0.054 | [3] -0.031 | [4] -0.063 | [5] 0.023 | rosiglitazone 0.034 | [6] -0.039 | [7] 0.004 | saracatinib -0.008 | sotrastaurin -0.031 | alvocidib -0.14 | Tubastatin A 0.027 | [8] -0.044 | defactinib -0.08 | rucaparib -0.036 | [9] 0 | encorafenib 0.025 | [10] 0.039

AGPAT2 (UniProt O15120)
inactive: [1] 0.041 | volasertib 0.029 | [2] 0.002 | epoxomicin -0.006 | [3] 0.034 | [4] -0.071 | [5] -0.026 | rosiglitazone -0.089 | [6] 0.022 | [7] 0.286 | saracatinib 0.089 | sotrastaurin -0.034 | alvocidib 0.019 | Tubastatin A 0.114 | [8] 0.018 | defactinib -0.025 | rucaparib 0.012 | [9] 0.042 | encorafenib 0.002 | [10] 0.083

AIMP1 isoform 2 (UniProt Q12904)
inactive: [1] 0.151 | volasertib 0.02 | [2] 0.061 | epoxomicin -0.232 | [3] -0.04 | [4] 0.134 | [5] -0.031 | rosiglitazone -0.083 | [6] 0.353 | [7] 0.039 | saracatinib -0.12 | sotrastaurin -0.13 | alvocidib 0.222 | Tubastatin A 0.07 | [8] 0.072 | defactinib 0.21 | rucaparib 0.441 | [9] 0.141 | encorafenib 0.172 | [10] -0.041

2 records picked at random from those above:
AIDA (UniProt Q96BJ3)
inactive: [1] -0.009 | volasertib -0.139 | [2] 0.027 | epoxomicin 0.054 | [3] -0.031 | [4] -0.063 | [5] 0.023 | rosiglitazone 0.034 | [6] -0.039 | [7] 0.004 | saracatinib -0.008 | sotrastaurin -0.031 | alvocidib -0.14 | Tubastatin A 0.027 | [8] -0.044 | defactinib -0.08 | rucaparib -0.036 | [9] 0 | encorafenib 0.025 | [10] 0.039

ALG10B (UniProt Q5I7T1)
inactive: [1] 0.092 | volasertib -0.079 | [2] -0.012 | epoxomicin 0.003 | [3] 0.031 | [4] 0.09 | [5] 0.096 | rosiglitazone -0.109 | [6] 0 | [7] -0.031 | saracatinib 0.029 | sotrastaurin -0.018 | alvocidib 0.03 | Tubastatin A -0.042 | [8] 0.019 | defactinib 0.128 | rucaparib -0.023 | [9] 0.014 | encorafenib -0.014 | [10] -0.151

Later entries.

AHNAK (UniProt Q09666)
inactive: [1] 0.096 | volasertib -0.006 | [2] -0.039 | epoxomicin -0.027 | [3] 0.029 | [4] 0.008 | [5] -0.025 | rosiglitazone -0.001 | [6] 0.005 | [7] 0.084 | saracatinib 0.006 | sotrastaurin 0.021 | alvocidib 0.007 | Tubastatin A -0.008 | [8] -0.024 | defactinib -0.018 | rucaparib 0.021 | [9] -0.098 | encorafenib -0.014 | [10] 0.015

ALDH4A1 (UniProt P30038)
inactive: [1] 0.003 | volasertib 0.033 | [2] 0.037 | epoxomicin 0.05 | [3] 0.027 | [4] -0.005 | [5] 0.016 | rosiglitazone 0.014 | [6] -0.093 | [7] -0.004 | saracatinib 0.028 | sotrastaurin 0.047 | alvocidib -0.091 | Tubastatin A -0.034 | [8] 0.003 | defactinib -0.006 | rucaparib 0.064 | [9] 0.034 | encorafenib -0.01 | [10] -0.004

AKR1B1 (UniProt P15121)
inactive: [1] 0.002 | volasertib 0.056 | [2] -0.043 | epoxomicin 0.046 | [3] 0.021 | [4] 0 | [5] -0.017 | rosiglitazone 0.01 | [6] -0.034 | [7] 0.002 | saracatinib 0.065 | sotrastaurin 0.017 | alvocidib 0.049 | Tubastatin A 0.019 | [8] -0.022 | defactinib 0.003 | rucaparib 0.014 | [9] -0.029 | encorafenib -0.016 | [10] 0.097

ALG8 (UniProt Q9BVK2)
inactive: [1] 0.016 | volasertib -0.206 | [2] 0.011 | epoxomicin -0.045 | [3] 0.039 | [4] 0.116 | [5] 0.021 | rosiglitazone 0.032 | [6] -0.023 | [7] -0.029 | saracatinib 0.007 | sotrastaurin -0.094 | alvocidib 0.002 | Tubastatin A -0.018 | [8] 0.102 | defactinib 0.006 | rucaparib -0.068 | [9] 0.02 | encorafenib 0.044 | [10] 0.007

AFP (UniProt P02771)
inactive: [1] -0.021 | volasertib 0.157 | [2] 0.057 | epoxomicin -0.508 | [3] -0.102 | [4] 0.07 | [5] -0.052 | rosiglitazone -0.14 | [6] 0.346 | [7] 0.079 | saracatinib 0.548 | sotrastaurin 0.318 | alvocidib 0.033 | Tubastatin A -0.203 | [8] 0.22 | defactinib -0.039 | rucaparib -0.378 | [9] -0.033 | encorafenib -0.009 | [10] 0.207
